Literature values, collected in patent US8772267B2, “Treatment of spinal mechanical pain” (New York University, priority 2002, dated 2014).

System: visceral pain induced by the administration of acetic acid
Settings: cited from earlier work

NCCCC(O)(P(=O)(O)O)P(=O)(O)O [alendronate]
effect on visceral pain (injected intraperitoneally in mice): able to reduce visceral pain | analgesic doses relative to toxic doses (intraperitoneal, mice): close to those that induce toxicity
